Publication PMC12811620
Results are given in words; binding and its absence hold for the method and conditions named. Binding seen in cells or lysates may run through a third protein. Some entries that bind do so weakly or less than the wild type.

By UniProt entry, the sequences of proteins in these tests, tags left out.
UniProt Q9Z2C8: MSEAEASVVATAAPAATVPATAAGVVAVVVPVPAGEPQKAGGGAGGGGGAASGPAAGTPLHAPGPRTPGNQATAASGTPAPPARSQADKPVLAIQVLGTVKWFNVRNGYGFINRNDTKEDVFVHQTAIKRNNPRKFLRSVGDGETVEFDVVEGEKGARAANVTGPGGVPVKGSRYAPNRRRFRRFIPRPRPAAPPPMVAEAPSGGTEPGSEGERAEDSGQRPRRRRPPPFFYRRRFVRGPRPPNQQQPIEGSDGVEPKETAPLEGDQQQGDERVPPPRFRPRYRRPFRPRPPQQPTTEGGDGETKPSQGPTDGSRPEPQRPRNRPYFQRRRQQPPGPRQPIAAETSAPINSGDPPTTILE
UniProt Q9CPN8: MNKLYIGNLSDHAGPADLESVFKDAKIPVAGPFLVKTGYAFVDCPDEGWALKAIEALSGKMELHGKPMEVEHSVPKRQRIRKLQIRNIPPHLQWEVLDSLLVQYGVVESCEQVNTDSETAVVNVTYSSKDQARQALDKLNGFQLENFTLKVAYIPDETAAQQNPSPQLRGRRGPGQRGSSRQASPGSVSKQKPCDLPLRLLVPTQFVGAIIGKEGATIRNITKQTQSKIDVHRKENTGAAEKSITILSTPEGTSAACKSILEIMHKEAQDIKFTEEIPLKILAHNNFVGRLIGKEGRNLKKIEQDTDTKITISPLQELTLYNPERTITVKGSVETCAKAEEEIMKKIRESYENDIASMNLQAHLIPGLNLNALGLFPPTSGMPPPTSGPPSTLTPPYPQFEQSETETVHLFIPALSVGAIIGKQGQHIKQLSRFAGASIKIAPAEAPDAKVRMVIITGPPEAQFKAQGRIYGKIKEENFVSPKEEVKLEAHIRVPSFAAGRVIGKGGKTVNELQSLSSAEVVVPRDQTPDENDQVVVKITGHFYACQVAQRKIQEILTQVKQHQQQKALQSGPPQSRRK

Key:
[1] = biological target: MYC-YBX2 (mouse YBX2 from pHIV-Ybx2-3xMYC-Bsd) (mouse) (UniProt Q9Z2C8); experiment: co-IP; lysates of co-transfected HEK293T cells; immunoprecipitation with anti-IgG, anti-FLAG or anti-MYC antibodies, treated with RNase A (+); blot for FLAG and MYC
[2] = biological target: FLAG-IGF2BP3 (mouse IGF2BP3 from pHIV-Igf2bp3-3xFLAG-Puro) (mouse) (UniProt Q9CPN8); experiment: as above
[3] = biological target: Insulin-like growth factor 2 mRNA-binding protein 3 (IGF2BP3), endogenous in mouse round spermatids (mouse (endogenous in round spermatids)) (UniProt Q9CPN8); experiment: co-IP; adult mouse round spermatid lysate; immunoprecipitation with anti-IgG or IGF2BP3 antibodies, treated with RNase A (+) or not (−); blot for IGF2BP3 and YBX2

FLAG-IGF2BP3 (mouse IGF2BP3 from pHIV-Igf2bp3-3xFLAG-Puro) (from UniProt Q9CPN8 1-579)
binding [1]: binds

MYC-YBX2 (mouse YBX2 from pHIV-Ybx2-3xMYC-Bsd) (from UniProt Q9Z2C8 1-360)
binding [2]: binds

YBX2, endogenous in mouse round spermatids (from UniProt Q9Z2C8 1-360)
binding [3]: binds
